PMC10186271, “The ABA-induced NAC transcription factor MdNAC1 interacts with a bZIP-type transcription factor to promote anthocyanin synthesis in red-fleshed apples”
Construct, isoform or probe ends are uncertain for at least one entry. At least one verdict was read from the data and is not stated in words by the source.

Test system: MdNAC1 + MdbZIP23
Assay: EMSA
Settings: increasing MdbZIP23-His enhances MdNAC1 binding, His tag added as control; Thermo Scientific Pierce EMSA kit protocol; pH and temperature not stated; cold probe 100x; recombinant protein; protein details: His (pET32a),His; label: 3' biotin

Sequence	binding result
GTGATTGGCTTCTGATGTTGACACGTGTCGCGCTGTGGTTGGCTTC (double strand) [UFGT hot probe (box 1)]	binds
TTTAATAAAAAGGACCCTGAACACGTGGGAACCGGCCCGTTTGTAA (double strand) [MYB10 hot probe]	binds
